No constants are given. Whether binding was seen depends on the method and setting. Binding seen in cells or lysates may run through a third protein. Some results given as binding are weak or reduced against the parent protein; the word gives no strength. For some of these results: Sequences can lack the tags named with a protein.
Experiments:
[1] = molecular target: T1, SecY1–YFP^N (Myc tagged) (Arabidopsis thaliana) (UniProt Q38885); test: co-IP; intact tobacco chloroplasts after co-infiltration, solubilised with an equal volume of buffer with 2% digitonin (100 mM Tris-HCl pH 7.5, 300 mM NaCl); anti-Myc antibody and protein A-agarose hold Myc-tagged SecY1–nYFP; immunoblot; wild-type leaves as control
T1 sequence: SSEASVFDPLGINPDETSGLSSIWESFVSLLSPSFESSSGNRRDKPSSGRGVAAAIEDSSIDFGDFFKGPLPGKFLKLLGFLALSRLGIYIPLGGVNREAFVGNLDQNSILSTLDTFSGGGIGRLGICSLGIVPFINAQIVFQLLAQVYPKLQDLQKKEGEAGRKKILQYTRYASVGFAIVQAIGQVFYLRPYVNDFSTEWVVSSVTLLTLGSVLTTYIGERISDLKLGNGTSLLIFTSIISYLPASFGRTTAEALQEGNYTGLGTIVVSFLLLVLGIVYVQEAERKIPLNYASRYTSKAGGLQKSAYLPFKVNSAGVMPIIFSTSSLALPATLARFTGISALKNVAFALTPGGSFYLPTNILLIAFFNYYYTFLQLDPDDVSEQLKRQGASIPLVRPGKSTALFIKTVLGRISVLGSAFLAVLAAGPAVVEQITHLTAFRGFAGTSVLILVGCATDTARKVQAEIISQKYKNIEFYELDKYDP

By UniProt entry, the sequences of proteins in these tests, tags left out. Where a name states a change or a piece, a line headed by the entry shows the natural chain unless it says otherwise.
UniProt P23321: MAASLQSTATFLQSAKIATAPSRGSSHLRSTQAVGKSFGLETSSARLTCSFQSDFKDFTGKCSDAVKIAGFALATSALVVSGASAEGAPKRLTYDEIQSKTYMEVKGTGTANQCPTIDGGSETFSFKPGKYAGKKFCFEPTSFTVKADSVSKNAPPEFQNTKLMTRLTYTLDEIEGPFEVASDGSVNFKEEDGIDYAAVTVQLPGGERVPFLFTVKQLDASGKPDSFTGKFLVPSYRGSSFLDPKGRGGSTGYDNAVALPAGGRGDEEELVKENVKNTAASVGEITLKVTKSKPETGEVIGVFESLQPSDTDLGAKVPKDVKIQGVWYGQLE

[2] = molecular target: T1, SecY1–YFP^N (Myc tagged) (Arabidopsis thaliana); test: split reporter; split YFP (nYFP/cYFP at the C-termini), transient co-expression in N. benthamiana leaf mesophyll chloroplasts, confocal microscopy 48 h after infiltration; also with 10 mM sodium azide or 30 uM geldanamycin
[3] = molecular target: T2, SecY1–T7 (Arabidopsis thaliana) (UniProt Q38885); test: co-IP; chloroplasts of 12-day-old SECY1–T7/secy1 Arabidopsis seedlings, solubilised with 0.5% DDM; anti-T7 agarose; immunoblot with anti-HSP90C; wild-type seedlings as control; also with 10 mM sodium azide, 30 uM geldanamycin or both
T2 sequence: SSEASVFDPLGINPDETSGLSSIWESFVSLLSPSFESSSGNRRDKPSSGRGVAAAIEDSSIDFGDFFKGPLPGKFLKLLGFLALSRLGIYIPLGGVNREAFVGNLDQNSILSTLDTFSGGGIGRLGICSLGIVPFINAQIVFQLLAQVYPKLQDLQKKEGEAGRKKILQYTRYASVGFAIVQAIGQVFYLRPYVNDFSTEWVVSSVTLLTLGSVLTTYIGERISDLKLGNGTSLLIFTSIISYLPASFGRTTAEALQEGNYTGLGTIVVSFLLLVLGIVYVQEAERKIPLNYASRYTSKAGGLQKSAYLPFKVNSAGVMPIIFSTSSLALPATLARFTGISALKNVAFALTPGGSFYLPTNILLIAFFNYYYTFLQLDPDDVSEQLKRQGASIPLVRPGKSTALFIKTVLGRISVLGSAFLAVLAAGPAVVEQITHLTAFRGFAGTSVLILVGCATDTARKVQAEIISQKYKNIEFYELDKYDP

Molecule: PsbO1^59–332GFP (from UniProt P23321 59-332) (domain or fragment)
- binding [1]: binds

Molecule: PsbO1^86–332GFP (from UniProt P23321 86-332) (domain or fragment)
- binding [1]: binds

B1: HSP90C–YFP^C (protein, UniProt Q9SIF2 61-780)
chain: CDAAVAEKETTEEGSGEKFEYQAEVSRLLDLIVHSLYSHKEVFLRELVSNASDALDKLRFLSVTEPSLLGDGGDLEIRIKPDPDNGTITITDTGIGMTKEELIDCLGTIAQSGTSKFLKALKENKDLGADNGLIGQFGVGFYSAFLVAEKVVVSTKSPKSDKQYVWESVADSSSYLIREETDPDNILRRGTQITLYLREDDKYEFAESTRIKNLVKNYSQFVGFPIYTWQEKSRTIEVEEDEPVKEGEEGEPKKKKTTKTEKYWDWELANETKPLWMRNSKEVEKGEYNEFYKKAFNEFLDPLAHTHFTTEGEVEFRSILYIPGMGPLNNEDVTNPKTKNIRLYVKRVFISDDFDGELFPRYLSFVKGVVDSDDLPLNVSREILQESRIVRIMRKRLIRKTFDMIQEISESENKEDYKKFWENFGRFLKLGCIEDTGNHKRITPLLRFFSSKNEEELTSLDDYIENMGENQKAIYYLATDSLKSAKSAPFLEKLIQKDIEVLYLVEPIDEVAIQNLQTYKEKKFVDISKEDLELGDEDEVKDREAKQEFNLLCDWIKQQLGDKVAKVQVSNRLSSSPCVLVSGKFGWSANMERLMKAQALGDTSSLEFMRGRRILEINPDHPIIKDLNAACKNAPESTEATRVVDLLYDTAIISSGFTPDSPAELGNKIYEMMAMAVGGRWGRVEEEEESSTVNEGDDKSGETEVVEPSEVRAESDPWQD
- binding [2]: binds

B2: endogenous Arabidopsis HSP90C (protein, UniProt Q9SIF2 61-780)
chain: CDAAVAEKETTEEGSGEKFEYQAEVSRLLDLIVHSLYSHKEVFLRELVSNASDALDKLRFLSVTEPSLLGDGGDLEIRIKPDPDNGTITITDTGIGMTKEELIDCLGTIAQSGTSKFLKALKENKDLGADNGLIGQFGVGFYSAFLVAEKVVVSTKSPKSDKQYVWESVADSSSYLIREETDPDNILRRGTQITLYLREDDKYEFAESTRIKNLVKNYSQFVGFPIYTWQEKSRTIEVEEDEPVKEGEEGEPKKKKTTKTEKYWDWELANETKPLWMRNSKEVEKGEYNEFYKKAFNEFLDPLAHTHFTTEGEVEFRSILYIPGMGPLNNEDVTNPKTKNIRLYVKRVFISDDFDGELFPRYLSFVKGVVDSDDLPLNVSREILQESRIVRIMRKRLIRKTFDMIQEISESENKEDYKKFWENFGRFLKLGCIEDTGNHKRITPLLRFFSSKNEEELTSLDDYIENMGENQKAIYYLATDSLKSAKSAPFLEKLIQKDIEVLYLVEPIDEVAIQNLQTYKEKKFVDISKEDLELGDEDEVKDREAKQEFNLLCDWIKQQLGDKVAKVQVSNRLSSSPCVLVSGKFGWSANMERLMKAQALGDTSSLEFMRGRRILEINPDHPIIKDLNAACKNAPESTEATRVVDLLYDTAIISSGFTPDSPAELGNKIYEMMAMAVGGRWGRVEEEEESSTVNEGDDKSGETEVVEPSEVRAESDPWQD
- binding [3]: binds

Source: PMC7906790
